Experimental data taken from article PMC12040169 (PLOS Biology, 2025).
The list shows a part of the results.

The compounds below were run on T1, CTL2-GFP (C. trachomatis L2/434/Bu, GFP-expressing). Settings: bulk GFP, single well; 28.5 h, 10 µM; inhibitor.
T1 construct: L2/434/Bu, GFP-expressing
Design: species or system HeLa; Intracellular C. trachomatis growth in HeLa cells, bulk GFP fluorescence relative to DMSO

Structure (SMILES) | % of control remaining [%]
Cc1ccc(S(N)(=O)=O)cc1CNC(=O)Nc1cccc(F)c1 [CBK093516] | 132.829
COCCNC(=O)c1cc(C2CN(CCc3ccccc3)CCO2)nc2ccccc12 (centres unmarked) [CBK285622] | 119.19
O=C(COC(=O)c1cc(-c2ccco2)nc2ccccc12)Nc1ccc(F)c(F)c1F [CBK296115] | 122.701
CCOC(=O)CC(=O)Nc1c(Br)cc(Br)cc1C(=O)O [CBK261412] | 89.1358
O=C(CN1CCN(c2cc(-c3ccc4ccccc4c3)ncn2)CC1)N1CCCC1 [CBK091064] | 198.691
O=C1NCCCNC(=O)C2(C/C=C/CCOc3ccccc31)CCN(C(=O)CN1CCCC1)CC2 [CBK292052] | 120.845
CC(=O)Nc1ccc(/C(C)=N/NC(=O)c2ccc(CN3CCOCC3)cc2)cc1 [CBK262720] | 127.692
c1ccc(Sc2cccc3ccccc23)nc1 [CBK085856] | 89.9348
O=c1[nH]nc2c(S(=O)(=O)N3CCCCC3)cccn12 [CBK288450] | 122.431
CCC1=NN(c2ccccc2)C(=O)C(CC(=O)Nc2ccccc2)c2cc(OC)c(OC)cc21 (centres unmarked) [CBK260938] | 100
Cc1ccc(OCC(=O)Nc2ccc(N3CCN(Cc4ccccc4)CC3)cc2)cc1C [CBK266085] | 116.756
Cc1cnc(CNC(=O)C2(c3ccccc3)CCCC2)cn1 [CBK149531] | 164.293
NS(=O)(=O)c1ccc(NC(=O)c2cccnc2)cc1 [CBK264488] | 138.57
Cc1ccc(CCC(=O)N2CCCCC2c2nc3ccccc3[nH]2)o1 (centres unmarked) [CBK282316] | 74.8648
Cc1nn(C)c(Cl)c1CN1CCOC(c2ccccc2)C1 (centres unmarked) [CBK305244] | 125.452
COc1ccc([C@]23CN(C)C[C@H]2CCN(C(=O)c2ccc4c(c2)OC(F)(F)O4)C3)cc1OC [CBK075110T] | 118.79
O=C(O)C1Cc2ccccc2C(=O)N1CCc1ccccc1 (centres unmarked) [CBK286592] | 129.179
CC(=O)Nc1ccc(C(=O)NCc2ccc(S(N)(=O)=O)cc2)cc1 [CBK263642] | 120.462
c1ccc(N2CCN(Cc3cncn3C3CCCCC3)CC2)nc1 [CBK307345] | 127.269
COc1cc(CNCc2cnn(C)c2)c(O)c(C(C)(C)C)c1 [CBK304721] | 122.125
C=CCn1c(SCC(=O)Nc2cccc(F)c2)nnc1-c1ccccc1O [CBK269620] | 134.089
COC(=O)c1cccc(CN2CCC3(CC2)NC(=O)Cc2ccccc23)c1 [CBK039807] | 124.111
COc1ccc(C(=O)Nc2nc3c(C)cccc3s2)c(OC)c1 [CBK287301] | 137.187
CN1Cc2ccccc2OC2(CCCN(C(=O)C3CC3)CC2)C1 (centres unmarked) [CBK285131] | 71.344
O=S(=O)(N1CCCCC1)N1CCN(CC(O)COc2ccc3cc(Br)ccc3c2)CC1 (centres unmarked) [CBK269032] | 124.48
CCC(NC(=O)Nc1cc(N2CCOCC2)ccc1Cl)c1nccs1 (centres unmarked) [CBK306519] | 161.413
COc1cc(F)ccc1-c1nc(N)cc2cccnc12 [CBK081176] | 107.252

Random excerpt: 2 entries already listed, in no set order.
Structure (SMILES) | % of control remaining [%]
c1ccc(Sc2cccc3ccccc23)nc1 [CBK085856] | 89.9348
O=c1[nH]nc2c(S(=O)(=O)N3CCCCC3)cccn12 [CBK288450] | 122.431

More structures follow:

Structure (SMILES) | % of control remaining [%]
COc1cc(Nc2cccc(-c3ccco3)n2)cc(OC)c1OC [CBK037724] | 191.154
CSCCN1CCCN(c2nccc(OCc3ccc(Cl)c(Cl)c3)n2)CC1 [CBK083960] | 89.979
Cc1cc2cn([C@@H]3O[C@H](CO)[C@H](O)C3O)c(=O)nc2[nH]1 (some centres unmarked) [CBK201219] | 110.341
Cc1ccc2nc(-c3ccccc3)c(C)c(C(=O)O)c2c1 [CBK270268] | 135.645
CCN(CC)C(=O)N1CCC(c2ccncc2)CC1 [CBK283503] | 108.83
O=C(CSc1nnc(Cc2cccs2)n1-c1ccccc1)c1c[nH]c2ccccc12 [CBK268290] | 151.261
Cc1ccc(-c2ccc(Nc3ccc(Oc4ccccc4)cc3)nc2)cc1C [CBK037740] | 185.563
CC(C)(C)S(=O)(=O)CC(N)=S [CBK021304] | 138.748
CC1=CCC2C(=O)N(C(CC(C)C)C(=O)O)C(=O)C2C1 (centres unmarked) [CBK287172] | 129.553
CCn1ncc2c1CCCC2NC1CCCN(c2cnn(C)c2)C1=O (centres unmarked) [CBK305316] | 126.032
COc1ccc(S(=O)(=O)N2CCC(C(=O)NCc3cccnc3)CC2)cc1Cl [CBK267613] | 137.159
Cc1cc(C)n(CC(=O)N[C@H]2CC[C@H]2N)c(=O)n1 [CBK307647] | 133.349
Cc1ccc(CCC(=O)N(CC(=O)O)C2CCOCC2)c(C)c1 [CBK304509] | 141.463
CCn1cnc(S(=O)(=O)N2CCC(OCc3ccccc3)CC2)c1 [CBK305228] | 130.526
Cc1c(C(=O)O)sc(S(=O)(=O)N2CCN(C(=O)c3ccc(Cl)cc3)CC2)c1C(=O)O [CBK297123] | 136.706
COc1ccc(C[C@@H]2NC(=O)[C@H]3CN(C(=O)c4cccn4C)CCN3C2=O)cc1 [CBK289616] | 97.8751
O=C(O)c1oc2ccccc2c1CSc1ccccn1 [CBK286981] | 131.635
CC(C)(C)OC(=O)N1CCCC(NC(CO)c2ccco2)CC1 (centres unmarked) [CBK304049] | 101.441
Cc1ccc(C(=O)NC[C@H]2O[C@@H](CC(=O)N3CCCC3)[C@H](O)[C@@H]2O)cc1 [CBK288912] | 84.8703
O=C(Nc1nc(-c2ccco2)c(-c2ccncc2)s1)C1CC1 [CBK284494] | 140.469
O=C(O)C1CCN(C(=O)CSc2nnc(-c3ccccc3F)n2C2CCCC2)CC1 [CBK296971] | 129.573
CCN(NC(=O)c1ccccc1-n1cccc1)c1ccc(C)cc1 [CBK161507] | 98.2918
S=C(NCCn1cc(Br)cn1)NCc1ccco1 [CBK266914] | 151.084
CN(C)CCNCCP(=O)(c1ccccc1)c1ccccc1 [CBK263049] | 100
Clc1nsnc1N1CCOCC1 [CBK019133] | 134.933
CCn1c2ccccc2c2cc(NC(=O)CSc3nnc(-c4ccoc4C)o3)ccc21 [CBK269010] | 124.872
CCOC(=O)CN1CCCN(c2c(F)cc(C#N)cc2F)CC1 [CBK304148] | 99.6012

Structure (SMILES) | % of control remaining [%]
COC(=O)c1ccsc1NS(=O)(=O)c1ccc(F)cc1 [CBK039060] | 154.343
O=C(c1ccc(F)cc1)[C@H]1CCCN(C(=O)c2cc[nH]n2)C1 [CBK284331] | 117.745
O=C(Nc1ccc2ccccc2c1)N1CCN(C(=O)C2CCCO2)CC1 (centres unmarked) [CBK044043] | 88.5204
CCOc1cccc(-c2ccc(Nc3cccc(NC(=O)c4ccncc4)c3)nc2)c1 [CBK037739] | 122.842
COc1cc(/N=C(\N)Nc2nc(=O)cc(CSc3ccc(C)cc3)[nH]2)cc(OC)c1 [CBK265532] | 125.651
O=S(=O)(NC1c2cccc3cccc(c23)C1N1CCNCC1)c1ccc(Cl)cc1 (centres unmarked) [CBK264082] | 116.854
Cc1nc(C2CCCN(C(=O)C3CCCO3)C2)c2sccn12 (centres unmarked) [CBK282241] | 96.5174
Cn1nccc1NS(=O)(=O)c1cc(C(F)(F)F)cc(C(F)(F)F)c1 [CBK062090] | 132.247
CN(Cc1nc2c(s1)CCCC2)C(=O)COc1ncnc2ccccc12 [CBK307151] | 143.272
CCN1CCN(c2ccc(NC(=O)Cc3cn4ccsc4n3)cc2)CC1 [CBK305892] | 141.846
CC(=O)Nc1ccccc1NC(=O)c1ccccc1CCc1ccccc1 [CBK268621] | 118.462
CC(C)N1CCOC[C@H]1c1nc(-c2ccc(S(C)(=O)=O)cc2)c[nH]1 [CBK289301] | 117.013
CCCc1cc(C(=O)N2CCCN(Cc3cnn(CC)c3)CC2)[nH]n1 [CBK305293] | 98.822
O=S(=O)(c1ccc(OC(F)(F)F)cc1)N1CCCCC1CO (centres unmarked) [CBK051527] | 100.4
Cc1cc(I)ccc1NCC(=O)NN [CBK261738] | 123.192
CCn1cc(CN2CCCN(C(=O)c3cc(C4CC4)on3)CC2)cn1 [CBK305401] | 116.165
COCCCN1C(=O)C(O)=C(C(=O)c2ccc(Cl)cc2)C1c1cccc(O)c1 (centres unmarked) [CBK264892] | 139.28
Cc1cc(NS(=O)(=O)c2cc(OCC(N)=O)c(C)cc2Cl)no1 [CBK266456] | 176.979
O=C(O)CC(NC(=O)c1ccco1)c1ccc(F)cc1 (centres unmarked) [CBK057988] | 112.406
O=C(CN1C(=O)N2CCCN=C2c2ccc(Cl)cc21)NC1CC1 [CBK284388] | 98.5406
CC(C)Oc1cccc2cccc(C(O)CN(C)C)c12 (centres unmarked) [CBK009892] | 124.043
CC(=O)c1ccc(NC(=O)CSc2ncccc2C(=O)O)cc1 [CBK299798] | 118.616
O=C(Nc1ccc(I)cc1)c1ccc(CN2CCc3ccccc3C2)cc1 [CBK262672] | 138.532
COc1cc(C(CC(=O)O)C(=O)O)c([N+](=O)[O-])cc1OC (centres unmarked) [CBK268541] | 129.669
COc1ccc(NC(=O)CSc2nc(N)cc(O)n2)c([N+](=O)[O-])c1 [CBK267904] | 100.475
CC(=O)c1ccc(-c2nc(-c3occc3C=O)cnc2N)cc1 [CBK064081] | 138.191

2 of the compounds above, in CSV form.
Structure (SMILES),% of control remaining [%]
CCn1ncc2c1CCCC2NC1CCCN(c2cnn(C)c2)C1=O (centres unmarked) [CBK305316],126.032
COc1ccc(S(=O)(=O)N2CCC(C(=O)NCc3cccnc3)CC2)cc1Cl [CBK267613],137.159
